# Bridges are numbered along the chain shown (N, C = ends).
# Assay: peptide made by a vendor (Fmoc solid-phase peptide synthesis)
# Details: analytical RP-HPLC
substance,measurement,setting,value
Ac-CPPYLPKYLCDLI-NH2 (disulfide 1-10; lactam 7-11; SMILES CC[C@H](C)[C@H](NC(=O)[C@H](CC(C)C)NC(=O)[C@@H]1CC(=O)NCCCC[C@@H]2NC(=O)[C@@H]3CCCN3C(=O)[C@H](CC(C)C)NC(=O)[C@H](Cc3ccc(O)cc3)NC(=O)[C@@H]3CCCN3C(=O)[C@@H]3CCCN3C(=O)[C@@H](NC(C)=O)CSSC[C@H](NC(=O)[C@H](CC(C)C)NC(=O)[C@H](Cc3ccc(O)cc3)NC2=O)C(=O)N1)C(N)=O),final HPLC purity,oxidative folding step,100.00%
same,final HPLC purity,whole synthesis,96.14%

# — publication PMC8607231 (Frontiers in Pharmacology, 2021)
